# In all, about 53,000 sequences went through this assay and about 3,700 (7%) were called active.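 How the source made its calls: active means gene knockdowns whose robust z-score for IL-1 alpha signal is at least 2 or at most -2, so actives lie on both sides; inactive means the rest.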 The list shows a part of the results.
# Test: Components of the Cytosolic LPS Sensing Pathway: Gene Identification via Genome-wide siRNA Screen;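 further: robust z of the log signal after scaling to non-targeting control siRNA wells of the plate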
# Conditions: RAW264.7 macrophages, IL-1a HTRF, actives lie on both sides, screened at 100 nM (by protocol), cells primed 5 h with Pam3CSK4 first
# Procedure, shortened: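 Knockdown: 100 nM siRNA, 48h, RAW264.7. Stimulation: Pam3CSK4 5 h, then LipidA via TransIT-TKO 24 h. Output: supernatant IL-1a HTRF, negative-control-normalized, log robust z-score; viability by CellTiter-Glo.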
row,Sequence,z-score
1,GGUAUACAAAUCAAAUGUCTT against Nufip1,inactive: -0.805
2,GGGAUUGAAUCAUAGUUAGTT against Ankrd42,inactive: 0.0447
3,GGAAAGCAAAAAGUUUCAGTT against Fam118b,inactive: -1.14
4,GCGGCUUAUGUCUCAAAUUTT against Gcdh,active: 2.34
5,GGAACUGGUGAAGCUCACUTT against Ublcp1,inactive: 0.304
6,CGAACAGAUCCGAAAAUCUTT against Antxrl,inactive: 1.8
7,GGUUCCUGUAUCACAUGCGTT against Hkdc1,inactive: -0.809
8,GCUUACCUCUAGAUACACUTT against Snrpd1,inactive: -1.61
9,GGUGCUGGCAACCUUUUGUTT against Masp1,inactive: 0.16
10,CCUUUGUGAUGGAUGUUUATT against Dexi,inactive: -0.0842
11,GAAGUGAUGCUGCUAGUAGTT against A030005L19Rik,inactive: -2
12,CCAUAUGGCAGUUUUGGCUTT against Vmn1r65,inactive: -1.3
13,GCACCAUUGACUCAGUUAATT against Gipc2,inactive: -1.3
14,GGCCGGAGAAAAACUUUUGTT against Olfr1406,inactive: -0.504
15,GGUGAAUGUAUAAGUUAUGTT against Icam1,inactive: 1
16,GCGAAUGCUGGAGAAACUUTT against Aif1,inactive: -0.351
17,GCCCACUCACACCUAUUCUTT against Olfr1388,inactive: 0.406
18,GGAUGAUUUCCAGAUCCAGTT against Nrsn1,inactive: -0.633
19,CCGUACUUAUGUUAGCUGATT against Csnk1a1,inactive: 1.04
20,GCUAUUGACAUAAUGAGGCTT against Nfe2l3,inactive: -1.41
21,GGAGGAAGACACUCCCUCUTT against Atf4,inactive: -0.778
22,GGGCAUCAUCACUUGUGCCTT against Kcp,inactive: 0.891
23,GCUCAUGCAACUCUGCGUUTT against Dpyd,inactive: -0.693

row,Sequence,z-score
1,GGUUUGCCCUGACACUUGUTT against Rtbdn,inactive: -0.754
2,GCAAUGAGCCAUUAAAGUGTT against Prxl2b,inactive: 0.331
3,CCACAUCUAGAUUUUGACUTT against Cep295,inactive: -0.56
4,GCUACAACCCUGUCUGACATT against P4hb,inactive: -0.79
5,GCUAGUGGUAAGUCAACCATT against Iqsec1,inactive: -0.882
6,GCUGCUUACACAGGAUGUATT against Abcd3,inactive: -0.146
7,GCCAAGGAUGCAGAUAUCGTT against Slc25a45,inactive: -0.842
8,CCCUUAUCAUCGUCAAUAGTT against Slc50a1,inactive: 0.932
9,GGCCCAAGAGAACAUCAAATT against Speer2,active: -2.16
10,GGAUAGUGUGGUUUUAUAUTT against Ercc6l,inactive: -0.351
11,GUCAGAACCAUAGCCAUGATT against Vmn1r202,inactive: -0.623
12,GGAGUUUACAUGAGUACUATT against Slco1a6,inactive: 0.577
13,GAACGGGUUACCAUGUGGUTT against Xkr9,inactive: 0.546
14,CCUUCAUGUAAUGAAGGCCTT against Rps10,inactive: 0.549
15,GGACACAGACAAUGAAAUGTT against Fetub,active: -2.35
16,CCCGCUUGUUCUGAUGAUATT against 2310039H08Rik,active: -2.26
17,GGAUGACAUCCAGACCAUGTT against Calcoco1,inactive: 0.715
18,GCUUCCAAUUACUUAUCCATT against Phc3,inactive: -0.0705
19,GCUUCGUGGGUGAAGGAUATT against Ofcc1,inactive: -1.21
20,GGCCAUUUGUCACAUAUGUTT against Tyk2,inactive: -0.436
21,GCUUCACGUUGGCUUUCCUTT against Vmn2r123,inactive: 0.306
22,GGAAUAAUCAAGCUAGGGATT against Satb2,active: -2.2
23,GCCCUACAAAAAAGUUAUUTT against Bnip2,inactive: 0.889

row,Sequence,z-score
1,GGUGCACAUUCAGAACGAUTT against Dtd1,inactive: -0.613
2,GGCUCAUGUGGUAUAGAAATT against Il1rapl2,inactive: 0.0445
3,GCUGUACCCAUCUGAUCACTT against Galnt15,inactive: 0.618
4,GGCUCUUCGAGACUUUGAGTT against Pde4dip,inactive: -0.362
5,CCUAUCAAGGCCAAUUCACTT against Jph2,inactive: 0.00908
6,GGUAGAAAAGAAAAAGACCTT against Stc1,inactive: 1.27
7,CCUGGAGGAGUAUUUACACTT against H2-Ob,inactive: -1.17
8,GCCCGAUGUCAUGUGGACATT against Eya2,inactive: -0.895
9,CCUUUACGUUUCUGUGUCUTT against Slc37a4,inactive: -1.19
10,GGUGGUCCUGGAUCUUUAUTT against Spon2,inactive: -0.986
11,GGAUCUGCUCUCUUAGAAGTT against Gzmn,inactive: -0.351
12,GGUACACUACAUGACUCAUTT against Sall4,active: 2.35
13,GCAUGUCCGUUUAUGUCACTT against Trp53inp2,inactive: -0.00352
14,GGCAGGAUCCUUUUCUCUATT against Als2,inactive: -1.44
15,GCAGACUCCAUGCAAAACUTT against Slc5a8,inactive: 0.133
16,GGAUUACUGAUCUCCAAAATT against Cenpe,inactive: 0.835
17,GGAGAACUUUGAUAUGGAGTT against Cuedc2,inactive: -0.365
18,GCCAACUAUACAUCUUAUCTT against Sftpa1,inactive: 0.915
19,CUUUGAGCUUGGAAGUAAATT against Mup21,inactive: 0.294
20,GGAUCAUUAACCCUGAAAUTT against Dscam,inactive: -0.723
21,GGAGAUGACAAAUCUAGUGTT against Smgc,inactive: 0.835
22,GCAUUAAGCAAUGGCAUCATT against Cbfa2t2,inactive: 0.21
